US20240115742A1, “FLUORINATED FIBERS FOR MULTIMODAL 1H AND 19F MRI, ULTRASOUND, FLUORESCENCE DETECTION AND CONFORMATIONAL AND TEMPERATURE DETECTION BY 19F MRS” (New York University, priority 2022, published 2024)

Tests used:
[1] = Tube inversion concentration-temperature phase diagram; type: physicochemical; details: bivariate linear regression
Method: Tube Inversion Test. Immediately after concentration to 2 mM, the protein was incubated at 4° C. over the course of two weeks after aliquoting 150 μL into a 2 mL Eppendorf tube. The samples were visually assessed for gelation by inverting the tubes at 12-hour time intervals thereafter, with gelled samples not flowing upon inversion.
Gelation. To study the relative gelation of Q2 as compared to the previously reported coiled-coil hydrogel, Q, protein was successfully expressed (FIG. 24), purified (FIG. 25), and concentrated to 2 mM (1% w/v) in Tris buffer (50 mM Tris, 500 mM NaCl) at pH 8.0. Purity of the protein was measured to be >99% by SDS-PAGE (FIG. 26) and concentration was measured by BCA assay. Immediately following concentration, the gelation process of Q2 was studied using the microrheology assay described previously following incubation at 4° C. Separately, 150 μL samples were aliquoted for tube inversion tests performed after 2 weeks of incubation for visual assessment of gelation over time at 4° C. (FIG. 19a-d) and at concentrations from 1 mM to 3.5 mM with temperatures 5° C. to 25° C. using 0.5 mM and 5° C. step sizes, respectively, to create a matrix-based phase diagram (FIG. 19e). Temperature and concentration ranges were selected based on preliminary tube-inversion testing at high and low ends of the ranges.
Thermoresponsiveness and material strength. UCST behavior of protein hydrogels was assessed by testing […] samples via tube inversion in 2 mL microtubes after incubation for two weeks at various temperatures and concentrations. Temperature conditions were modulated in the range of 5-40° C. The concentration range was modified depending on if precipitation was visually noticeable in the microtube at an earlier concentration, indicating a solubility limit to our phase diagram, as has been done previously. […] As done with Q2, the UCST of the hydrogels was determined using a bivariate linear relationship for the extent of gelation where tubes that passed gelation by tube inversion were assigned a value of 1 (shown in black in FIG. 52a and FIG. 64a-d) and tubes that failed gelation by tube inversion (shown in red in FIG. 52a and FIG. 64a-d) were assigned a value of 0. The heatmap in FIG. 52a and FIG. 64a-d was used to denote the range of extent of gelation where the equation was employed to solve for the UCST using the solubility limit and solving for an extent of gelation, η, value of 0.5. The UCSTs (FIG. 52b) for the hydrogels studied here were 13.0° C., 35.9° C., 33.6° C., 17.5° C., and 22.9° C. for Q3-7, respectively, as compared to 17.0° C. for Q and 22.0° C. for Q2 found previously. […]
Tube Inversion. Binary sol-gel behavior was assessed using tube inversion. […]

[2] = Circular dichroism wavelength scans; type: physicochemical; details: for θ208 / θ222 / θ222/θ208: 25 °C, 15 μM, pH 4.0

| Substance | concentration coefficient of gelation [1] | temperature coefficient of gelation [1] | θ208 [2] | θ222 [2] | θ222/θ208 [2] | MRE minimum at 208 nm ([2]; fibers pH 4.0, text) | MRE minimum at 222 nm ([2]; fibers pH 4.0, text) | MRE at 208 nm ([2]; Q2 in solution, 4 °C) | MRE at 222 nm ([2]; Q2 in solution, 4 °C) | 222/208 ratio ([2]; Q2 post-gelation) | MRE single minimum at 227 nm ([2]; Q2 post-gelation) |
| --- | --- | --- | --- | --- | --- | --- | --- | --- | --- | --- | --- |
| Q: rationally designed pentameric coiled-coil derived from C, SEQ ID NO: 23 (MRGSHHHHHHGSIEGRVKEITFLKNTAPQMLRELQETNAALQDVRELLRQQSKL) [reference compound] | 0.247 mM⁻¹ | −0.091 °C^−1 | −10,000 ± 6,000 mdeg · cm^2 · dmol^−1 | −8,000 ± 3,000 mdeg · cm^2 · dmol^−1 | 1.04 ± 0.57 | −10,000±6,000 deg·cm^2·dmol^−1 | −8,000±3,000 deg·cm^2·dmol^−1 | – | – | – | – |
| Q2: coiled-coil protein redesigned from Q for reduced lateral assembly, SEQ ID NO: 11 (MRGSHHHHHHGSIEGRVKELLFLKKTAEQMLEELKETNKALHDVRHLLENQSKL) [Protein Q2] | 0.000251 mM⁻¹ | −0.050 °C^−1 | −19,000 ± 2,000 mdeg · cm^2 · dmol^−1 | −17,000 ± 2,000 mdeg · cm^2 · dmol^−1 | 0.91 ± 0.05 | – | – | −3,400±1,000 deg·cm^2·dmol^−1 | −2,600±600 deg·cm^2·dmol^−1 | 3.35±0.37 | −3,600±800 deg·cm^2·dmol^1 |
